{"source": "PubChem BioAssay AID1259424 (University of Nebraska Medical Center, 2018)", "screen": "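Find knockdowns that reproduce the expression shifts seen after KSR1 loss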 (primary screen)", "cell system": "human HCT116 colon cancer cells", "reagent": "siRNA pool against human genes, 50 nM", "measured": "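Log2 levels of six mRNAs (branched-DNA multiplex), adjusted by two reference genes and the non-targeting median, then scored against the average KSR1 knockdown pattern as Pearson r and euclidean distance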", "scale": "mean correlation with KSR1 profile: higher = expression change more like KSR1 knockdown", "note": "The whole screen tested about 14,000 reagents; shown is a random part of them. 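Higher correlation or smaller distance means closer resemblance to KSR1 loss; control wells, including KSR1 knockdowns, recur on many plates.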 Not all columns of the deposit are shown. No sequences are given here. The record does not give: the time to read-out."}
{"target": "BNIP3L (GeneID 665)", "mean correlation with KSR1 profile": -0.515}
{"target": "PSMG2 (GeneID 56984)", "mean correlation with KSR1 profile": -0.227}
{"target": "GPKOW (GeneID 27238)", "mean correlation with KSR1 profile": -0.149}
{"target": "MAGEA11 (GeneID 4110)", "mean correlation with KSR1 profile": -0.246}
{"target": "PRKCSH (GeneID 5589)", "mean correlation with KSR1 profile": 0.361}
{"target": "PCGF6 (GeneID 84108)", "mean correlation with KSR1 profile": 0.662}
{"target": "UBE2E1 (GeneID 7324)", "mean correlation with KSR1 profile": -0.0678}
{"target": "ABCG8 (GeneID 64241)", "mean correlation with KSR1 profile": 0.801}
{"target": "ABCC3 (GeneID 8714)", "mean correlation with KSR1 profile": -0.0356}
{"target": "MGLL (GeneID 11343)", "mean correlation with KSR1 profile": -0.525}
{"target": "KHK (GeneID 3795)", "mean correlation with KSR1 profile": 0.581}
{"target": "DESI1 (GeneID 27351)", "mean correlation with KSR1 profile": -0.0316}
{"target": "ZMAT3 (GeneID 64393)", "mean correlation with KSR1 profile": -0.013}
{"target": "GPR85 (GeneID 54329)", "mean correlation with KSR1 profile": 0.457}
{"target": "IFRD2 (GeneID 7866)", "mean correlation with KSR1 profile": -0.219}
{"target": "ACTA2 (GeneID 59)", "mean correlation with KSR1 profile": -0.269}
{"target": "EDDM3A (GeneID 10876)", "mean correlation with KSR1 profile": 0.0317}
{"target": "TNFSF10 (GeneID 8743)", "mean correlation with KSR1 profile": 0.661}
{"target": "ACSL3 (GeneID 2181)", "mean correlation with KSR1 profile": -0.31}

2 entries from above, ordered by “mean correlation with KSR1 profile”, highest first.
{"target": "ABCG8 (GeneID 64241)", "mean correlation with KSR1 profile": 0.801}
{"target": "ABCC3 (GeneID 8714)", "mean correlation with KSR1 profile": -0.0356}
